Measurements published in the supplement of paper PMC10849652.
Some of the results follow.

By UniProt entry, the sequences of proteins in these tests, tags left out. Where a name states a change or a piece, a line headed by the entry shows the natural chain unless it says otherwise.
UniProt O00217, whole entry, looked up: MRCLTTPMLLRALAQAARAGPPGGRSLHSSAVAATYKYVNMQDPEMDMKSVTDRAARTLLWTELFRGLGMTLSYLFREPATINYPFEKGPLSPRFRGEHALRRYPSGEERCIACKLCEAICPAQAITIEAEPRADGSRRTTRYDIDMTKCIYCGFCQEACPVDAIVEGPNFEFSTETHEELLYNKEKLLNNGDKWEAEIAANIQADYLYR
UniProt O75323: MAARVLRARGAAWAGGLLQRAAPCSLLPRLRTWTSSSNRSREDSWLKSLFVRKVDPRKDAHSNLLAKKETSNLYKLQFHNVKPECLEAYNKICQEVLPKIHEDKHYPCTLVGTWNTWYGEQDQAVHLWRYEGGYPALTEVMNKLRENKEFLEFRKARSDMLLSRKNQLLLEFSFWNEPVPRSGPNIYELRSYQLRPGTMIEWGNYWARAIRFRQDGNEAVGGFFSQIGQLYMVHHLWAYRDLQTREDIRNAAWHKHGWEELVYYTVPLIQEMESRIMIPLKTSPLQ
UniProt Q96IV0: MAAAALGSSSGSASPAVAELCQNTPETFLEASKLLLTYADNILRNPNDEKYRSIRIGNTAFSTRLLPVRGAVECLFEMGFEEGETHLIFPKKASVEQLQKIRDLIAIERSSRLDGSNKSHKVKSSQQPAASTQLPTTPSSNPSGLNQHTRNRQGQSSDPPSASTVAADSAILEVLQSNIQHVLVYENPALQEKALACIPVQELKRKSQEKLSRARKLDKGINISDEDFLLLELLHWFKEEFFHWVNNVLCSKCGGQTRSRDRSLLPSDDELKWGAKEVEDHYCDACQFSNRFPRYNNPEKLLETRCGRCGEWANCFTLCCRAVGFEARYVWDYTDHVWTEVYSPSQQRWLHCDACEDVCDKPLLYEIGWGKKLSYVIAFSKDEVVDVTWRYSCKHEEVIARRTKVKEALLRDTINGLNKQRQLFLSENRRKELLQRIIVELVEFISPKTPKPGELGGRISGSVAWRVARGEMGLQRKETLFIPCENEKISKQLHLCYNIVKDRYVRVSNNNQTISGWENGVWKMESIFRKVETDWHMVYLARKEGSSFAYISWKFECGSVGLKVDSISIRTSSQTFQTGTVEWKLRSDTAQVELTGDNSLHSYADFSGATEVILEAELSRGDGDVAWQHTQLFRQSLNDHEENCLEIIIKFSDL
UniProt P49821, whole entry, looked up: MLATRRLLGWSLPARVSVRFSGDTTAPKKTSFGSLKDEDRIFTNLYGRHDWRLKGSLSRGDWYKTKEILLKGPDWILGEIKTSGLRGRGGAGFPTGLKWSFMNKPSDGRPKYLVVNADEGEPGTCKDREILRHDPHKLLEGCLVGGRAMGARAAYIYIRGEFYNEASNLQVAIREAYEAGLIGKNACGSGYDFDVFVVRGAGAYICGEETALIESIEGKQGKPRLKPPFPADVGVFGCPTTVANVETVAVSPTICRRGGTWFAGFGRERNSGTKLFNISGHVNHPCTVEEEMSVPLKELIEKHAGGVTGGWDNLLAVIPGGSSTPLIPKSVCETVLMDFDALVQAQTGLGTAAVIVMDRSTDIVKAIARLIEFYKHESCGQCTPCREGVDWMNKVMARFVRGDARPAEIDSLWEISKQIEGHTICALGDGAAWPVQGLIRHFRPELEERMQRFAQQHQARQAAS
UniProt P56181: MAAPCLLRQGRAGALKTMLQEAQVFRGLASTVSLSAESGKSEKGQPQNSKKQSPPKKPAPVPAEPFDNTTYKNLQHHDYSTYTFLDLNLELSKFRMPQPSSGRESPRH
UniProt Q7L592: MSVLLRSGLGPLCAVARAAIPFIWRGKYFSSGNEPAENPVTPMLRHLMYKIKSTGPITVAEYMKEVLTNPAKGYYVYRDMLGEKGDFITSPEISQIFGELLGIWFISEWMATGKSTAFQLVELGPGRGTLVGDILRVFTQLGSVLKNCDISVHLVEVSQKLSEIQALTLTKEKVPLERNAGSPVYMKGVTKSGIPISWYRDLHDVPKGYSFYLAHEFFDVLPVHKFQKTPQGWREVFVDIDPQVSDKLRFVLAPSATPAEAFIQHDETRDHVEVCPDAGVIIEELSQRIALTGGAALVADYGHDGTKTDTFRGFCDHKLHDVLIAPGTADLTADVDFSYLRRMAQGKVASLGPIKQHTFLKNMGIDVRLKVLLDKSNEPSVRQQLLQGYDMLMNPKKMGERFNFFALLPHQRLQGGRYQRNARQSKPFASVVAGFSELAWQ
UniProt P46934: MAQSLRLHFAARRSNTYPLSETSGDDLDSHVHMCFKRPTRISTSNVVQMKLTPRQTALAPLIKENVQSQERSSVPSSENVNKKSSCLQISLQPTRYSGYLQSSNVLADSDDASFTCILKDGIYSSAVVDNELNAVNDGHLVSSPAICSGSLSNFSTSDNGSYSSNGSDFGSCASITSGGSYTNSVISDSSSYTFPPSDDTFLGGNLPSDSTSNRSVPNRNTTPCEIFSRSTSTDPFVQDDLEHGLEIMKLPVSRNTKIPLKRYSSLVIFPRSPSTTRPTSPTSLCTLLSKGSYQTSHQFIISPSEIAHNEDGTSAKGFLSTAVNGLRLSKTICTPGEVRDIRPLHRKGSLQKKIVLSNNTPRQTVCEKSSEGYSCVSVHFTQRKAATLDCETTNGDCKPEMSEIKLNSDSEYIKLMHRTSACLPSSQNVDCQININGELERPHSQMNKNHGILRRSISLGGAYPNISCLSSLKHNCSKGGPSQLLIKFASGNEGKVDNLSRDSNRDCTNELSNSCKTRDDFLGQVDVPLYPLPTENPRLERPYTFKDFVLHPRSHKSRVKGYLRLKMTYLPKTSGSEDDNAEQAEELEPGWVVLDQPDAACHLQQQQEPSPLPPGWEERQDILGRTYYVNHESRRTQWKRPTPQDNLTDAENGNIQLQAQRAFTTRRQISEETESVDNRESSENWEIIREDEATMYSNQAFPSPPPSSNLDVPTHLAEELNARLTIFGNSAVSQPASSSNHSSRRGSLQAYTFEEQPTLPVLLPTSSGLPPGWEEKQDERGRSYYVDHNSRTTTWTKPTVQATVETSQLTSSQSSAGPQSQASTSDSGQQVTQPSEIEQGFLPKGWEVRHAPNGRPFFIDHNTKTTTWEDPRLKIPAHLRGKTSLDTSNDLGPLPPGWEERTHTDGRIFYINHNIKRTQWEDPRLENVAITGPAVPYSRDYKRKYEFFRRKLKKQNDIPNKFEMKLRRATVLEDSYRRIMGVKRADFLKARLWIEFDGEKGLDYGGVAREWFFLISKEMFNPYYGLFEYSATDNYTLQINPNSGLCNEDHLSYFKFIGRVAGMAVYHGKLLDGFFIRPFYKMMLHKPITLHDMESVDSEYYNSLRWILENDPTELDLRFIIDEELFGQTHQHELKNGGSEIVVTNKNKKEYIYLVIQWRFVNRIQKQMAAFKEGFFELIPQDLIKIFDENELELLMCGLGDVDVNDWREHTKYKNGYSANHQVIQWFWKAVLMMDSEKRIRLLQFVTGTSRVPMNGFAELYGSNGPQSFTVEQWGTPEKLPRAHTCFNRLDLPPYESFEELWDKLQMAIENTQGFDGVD
UniProt Q9Y6M9, whole entry, looked up: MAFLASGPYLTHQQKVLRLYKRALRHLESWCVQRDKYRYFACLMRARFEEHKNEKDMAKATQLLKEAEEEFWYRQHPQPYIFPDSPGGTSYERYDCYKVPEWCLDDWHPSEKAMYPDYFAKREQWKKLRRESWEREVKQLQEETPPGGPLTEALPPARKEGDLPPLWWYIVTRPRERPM
UniProt Q9GZT8: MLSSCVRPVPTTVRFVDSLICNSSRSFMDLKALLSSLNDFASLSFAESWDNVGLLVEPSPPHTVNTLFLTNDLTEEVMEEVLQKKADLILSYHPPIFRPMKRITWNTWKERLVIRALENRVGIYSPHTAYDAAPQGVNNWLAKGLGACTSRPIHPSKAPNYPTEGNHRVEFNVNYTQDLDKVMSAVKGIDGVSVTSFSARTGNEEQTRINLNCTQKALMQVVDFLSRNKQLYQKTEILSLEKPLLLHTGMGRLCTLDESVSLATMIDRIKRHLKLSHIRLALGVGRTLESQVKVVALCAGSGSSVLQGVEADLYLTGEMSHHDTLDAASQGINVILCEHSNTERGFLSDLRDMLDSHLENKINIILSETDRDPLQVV
UniProt O43920, whole entry, looked up: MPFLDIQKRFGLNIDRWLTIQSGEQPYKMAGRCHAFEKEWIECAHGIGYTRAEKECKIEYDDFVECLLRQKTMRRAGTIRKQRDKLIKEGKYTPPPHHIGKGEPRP
UniProt Q9Y2I1: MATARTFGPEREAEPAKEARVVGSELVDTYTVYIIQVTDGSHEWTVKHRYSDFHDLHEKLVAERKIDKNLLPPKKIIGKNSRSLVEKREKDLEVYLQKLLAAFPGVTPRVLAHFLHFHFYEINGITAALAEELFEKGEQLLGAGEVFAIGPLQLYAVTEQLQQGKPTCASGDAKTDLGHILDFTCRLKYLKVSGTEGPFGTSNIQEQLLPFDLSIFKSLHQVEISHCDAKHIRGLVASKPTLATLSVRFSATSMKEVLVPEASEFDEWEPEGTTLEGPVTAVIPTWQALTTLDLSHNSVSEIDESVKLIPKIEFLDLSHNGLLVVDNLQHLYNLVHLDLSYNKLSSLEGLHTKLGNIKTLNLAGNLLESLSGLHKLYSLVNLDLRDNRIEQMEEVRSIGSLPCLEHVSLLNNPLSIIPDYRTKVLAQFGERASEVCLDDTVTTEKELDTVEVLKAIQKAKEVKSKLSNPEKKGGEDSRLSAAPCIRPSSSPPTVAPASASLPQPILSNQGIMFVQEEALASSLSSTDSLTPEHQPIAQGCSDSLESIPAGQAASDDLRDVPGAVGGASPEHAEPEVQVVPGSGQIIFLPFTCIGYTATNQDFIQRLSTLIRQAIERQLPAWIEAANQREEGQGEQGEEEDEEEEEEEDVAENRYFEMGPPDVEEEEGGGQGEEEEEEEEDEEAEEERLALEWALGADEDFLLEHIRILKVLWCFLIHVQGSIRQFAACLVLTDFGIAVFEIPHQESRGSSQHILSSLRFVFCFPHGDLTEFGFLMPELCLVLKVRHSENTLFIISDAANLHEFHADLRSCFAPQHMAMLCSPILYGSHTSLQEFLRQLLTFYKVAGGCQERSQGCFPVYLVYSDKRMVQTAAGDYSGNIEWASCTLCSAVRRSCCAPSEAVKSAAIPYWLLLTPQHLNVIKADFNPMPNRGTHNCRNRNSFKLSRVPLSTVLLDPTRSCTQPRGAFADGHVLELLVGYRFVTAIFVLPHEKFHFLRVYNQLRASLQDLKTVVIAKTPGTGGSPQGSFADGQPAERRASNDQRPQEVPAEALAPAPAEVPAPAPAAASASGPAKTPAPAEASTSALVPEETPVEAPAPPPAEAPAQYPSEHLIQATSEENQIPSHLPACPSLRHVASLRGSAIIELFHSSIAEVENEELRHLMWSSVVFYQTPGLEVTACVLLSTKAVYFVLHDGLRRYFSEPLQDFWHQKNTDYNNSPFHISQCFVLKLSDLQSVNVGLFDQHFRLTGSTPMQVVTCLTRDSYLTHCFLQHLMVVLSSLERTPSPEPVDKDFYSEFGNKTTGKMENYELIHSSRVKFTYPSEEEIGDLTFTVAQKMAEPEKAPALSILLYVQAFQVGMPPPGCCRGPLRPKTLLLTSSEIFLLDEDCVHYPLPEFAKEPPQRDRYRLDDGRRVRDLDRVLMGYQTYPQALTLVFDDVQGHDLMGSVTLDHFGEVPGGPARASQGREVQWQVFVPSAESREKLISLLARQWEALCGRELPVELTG
UniProt Q9BYG3: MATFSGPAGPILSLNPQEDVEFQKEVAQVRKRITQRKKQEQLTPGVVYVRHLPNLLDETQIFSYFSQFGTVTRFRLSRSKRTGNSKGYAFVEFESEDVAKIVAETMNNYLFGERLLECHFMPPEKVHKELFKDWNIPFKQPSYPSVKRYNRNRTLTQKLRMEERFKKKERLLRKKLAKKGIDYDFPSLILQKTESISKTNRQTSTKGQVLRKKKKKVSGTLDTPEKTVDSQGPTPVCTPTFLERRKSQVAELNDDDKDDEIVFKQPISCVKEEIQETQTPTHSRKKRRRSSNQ
UniProt Q13952: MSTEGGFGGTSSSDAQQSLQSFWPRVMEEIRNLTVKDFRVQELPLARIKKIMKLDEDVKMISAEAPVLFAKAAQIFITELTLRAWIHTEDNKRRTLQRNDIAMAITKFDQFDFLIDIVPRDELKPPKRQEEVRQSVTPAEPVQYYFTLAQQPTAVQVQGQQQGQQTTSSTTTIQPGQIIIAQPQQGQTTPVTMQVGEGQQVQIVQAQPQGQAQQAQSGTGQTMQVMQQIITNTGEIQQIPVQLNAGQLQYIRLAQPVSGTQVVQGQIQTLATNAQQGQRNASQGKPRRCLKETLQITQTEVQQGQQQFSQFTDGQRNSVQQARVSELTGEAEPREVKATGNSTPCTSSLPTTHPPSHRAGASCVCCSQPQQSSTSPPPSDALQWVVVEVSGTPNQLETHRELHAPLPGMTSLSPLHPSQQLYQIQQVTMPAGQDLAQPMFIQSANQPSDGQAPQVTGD
UniProt Q9NX14, whole entry, looked up: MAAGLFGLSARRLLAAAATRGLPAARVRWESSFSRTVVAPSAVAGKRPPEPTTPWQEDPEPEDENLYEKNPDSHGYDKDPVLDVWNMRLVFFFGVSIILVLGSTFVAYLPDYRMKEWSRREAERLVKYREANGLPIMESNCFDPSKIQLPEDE

Experiments:
Experiment in all cases: log2 fold change, soluble protein after heating vs DMSO (PISA); higher = thermal stabilisation; K562 lysate, 10 uM; active = over 0.2 and 3.5 SD of the protein, either way, in both replicates (recomputed)
[1] = compound: CS(=O)(=O)CCNCc1ccc(-c2ccc3ncnc(Nc4ccc(OCc5cccc(F)c5)c(Cl)c4)c3c2)o1 [lapatinib]
Summary of the method: (§1)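 Pellets of K562 cells were dounce-homogenised in PBS pH 7.4 with 1 mM MgCl2, and the crude extract was held at 1 mg/mL protein for a 30 min treatment with 10 μM compound. Aliquots were heated for 3 min over 48°C-58°C and pooled before NP-40 was added to 0.5% at 4°C. The supernatant from 21,000xg for 90 min was quantified by TMTpro 16plex LC-MS/MS with channel sums equalised. Values are reported from duplicates as log-two fold change in thermal stability relative to solvent controls.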

[2] = compound: CS(=O)(=O)N1CCN(Cc2cc3nc(-c4cccc5[nH]ncc45)nc(N4CCOCC4)c3s2)CC1 [pictilisib]
Summary of the method: as §1

[3] = compound: C[C@@H](Oc1cc(-c2cnn(C3CCNCC3)c2)cnc1N)c1c(Cl)ccc(F)c1Cl [crizotinib]
Summary of the method: as §1

[4] = compound: C[C@H](C1=CC=C(C=C1)C(=O)NC2=C3C=CNC3=NC=C2)N
Summary of the method: as §1

[5] = compound: C[C@H](Nc1ncnc2nc[nH]c12)c1cc2cccc(Cl)c2c(=O)n1-c1ccccc1 [duvelisib]
Summary of the method: as §1

[6] = compound: Cc1cc(Nc2cc(CN3CCOCC3)c3nc(C)c(Cc4ccc(Cl)cc4F)n3n2)n[nH]1 [gandotinib]
Summary of the method: as §1

[7] = compound: Cc1cc(Nc2cc(N3CCN(C)CC3)nc(Sc3ccc(NC(=O)C4CC4)cc3)n2)n[nH]1 [tozasertib]
Summary of the method: as §1

[8] = compound: Cc1ccc(-n2nc(C(C)(C)C)cc2NC(=O)Nc2ccc(OCCN3CCOCC3)c3ccccc23)cc1 [doramapimod]
Summary of the method: as §1

[9] = compound: Cc1ccc(NC(=O)c2ccc(CN3CC[C@H](N(C)C)C3)c(C(F)(F)F)c2)cc1Nc1nccc(-c2cncnc2)n1 [bafetinib]
Summary of the method: as §1

[10] = compound: Cc1cccc(CC(=O)N2CCc3c2ccc(-c2cn(C)c4ncnc(N)c24)c3F)n1
Summary of the method: as §1

Measured: log2 fold change

NDOR1 isoform 2 (UniProt Q9UHB4)
inactive: [1] 0.197 | [2] -0.146 | [3] 0.022 | [4] -0.057 | [5] -0.05 | [6] -0.011 | [7] -0.028 | [8] -0.009 | [9] 0.007 | [10] 0.075

NDRG3 (UniProt Q9UGV2)
inactive: [1] -0.011 | [2] -0.005 | [3] -0.011 | [4] 0.054 | [5] 0.034 | [6] -0.024 | [7] -0.007 | [8] -0.017 | [9] -0.005 | [10] -0.044

NEB isoform 3 (UniProt P20929)
inactive: [1] 0.091 | [2] 0.104 | [3] -0.103 | [4] -0.202 | [5] -0.02 | [6] 0.141 | [8] 0.015 | [9] -0.046 | [10] 0.313

NDUFS8 (UniProt O00217)
inactive: [1] -0.046 | [2] 0.011 | [3] -0.043 | [4] 0.085 | [5] 0.01 | [6] -0.164 | [7] 0.034 | [8] 0.007 | [9] 0.026 | [10] 0.006

NELFCD (UniProt Q8IXH7)
inactive: [1] -0.035 | [2] -0.048 | [3] -0.043 | [4] 0.074 | [5] 0.017 | [6] -0.087 | [7] -0.025 | [8] 0.045 | [9] -0.105 | [10] -0.029

NIPSNAP2 (UniProt O75323)
inactive: [1] 0.015 | [2] -0.06 | [3] -0.01 | [4] -0.019 | [5] -0.168 | [6] -0.034 | [7] 0.007 | [8] -0.103 | [9] 0.004 | [10] 0.014

NDUFAF6 (UniProt Q330K2)
inactive: [1] 0.007 | [2] -0.018 | [3] -0.363 | [4] 0.017 | [5] 0.229 | [6] -0.203 | [7] 0.354 | [8] 0.067 | [9] -0.08 | [10] 0.057

NECAP2 (UniProt Q9NVZ3)
inactive: [1] -0.007 | [2] -0.042 | [3] 0.036 | [4] 0.047 | [5] -0.023 | [6] -0.038 | [7] -0.028 | [8] -0.015 | [9] 0.041 | [10] -0.024

NGLY1 (UniProt Q96IV0)
inactive: [1] -0.017 | [2] -0.002 | [3] -0.058 | [4] 0.038 | [5] -0.001 | [6] -0.053 | [7] -0.025 | [8] -0.013 | [9] -0.048 | [10] 0.04

Quoted from the results shown (3 entries):
NDUFS8 (UniProt O00217)
inactive: [1] -0.046 | [2] 0.011 | [3] -0.043 | [4] 0.085 | [5] 0.01 | [6] -0.164 | [7] 0.034 | [8] 0.007 | [9] 0.026 | [10] 0.006

NELFCD (UniProt Q8IXH7)
inactive: [1] -0.035 | [2] -0.048 | [3] -0.043 | [4] 0.074 | [5] 0.017 | [6] -0.087 | [7] -0.025 | [8] 0.045 | [9] -0.105 | [10] -0.029

NIPSNAP2 (UniProt O75323)
inactive: [1] 0.015 | [2] -0.06 | [3] -0.01 | [4] -0.019 | [5] -0.168 | [6] -0.034 | [7] 0.007 | [8] -0.103 | [9] 0.004 | [10] 0.014

Next part:

NDUFV1 (UniProt P49821)
inactive: [1] -0.013 | [2] -0.016 | [3] -0.012 | [4] -0.057 | [5] 0.003 | [6] 0.028 | [7] 0.043 | [8] 0.014 | [9] -0.003 | [10] 0.023

NDUFA13 (UniProt Q9P0J0)
inactive: [1] -0.042 | [2] -0.021 | [3] -0.008 | [4] -0.019 | [5] -0.018 | [6] -0.004 | [7] -0.02 | [8] 0.002 | [9] -0.02 | [10] 0.03

NHEJ1 (UniProt Q9H9Q4)
inactive: [1] 0.005 | [2] -0.03 | [3] 0.014 | [4] -0.003 | [5] 0.057 | [6] 0.053 | [7] -0.019 | [8] 0.03 | [9] -0.014 | [10] 0

NDRG1 (UniProt Q92597)
inactive: [1] 0.088 | [2] -0.06 | [3] 0.081 | [4] 0.141 | [5] -0.282 | [6] 0.159 | [8] 0.057 | [9] -0.181 | [10] -0.034

NDUFV3 (UniProt P56181)
inactive: [1] 0.104 | [2] 0.043 | [3] 0.024 | [4] -0.024 | [5] 0.023 | [6] 0.009 | [7] -0.122 | [8] -0.025 | [9] 0.001 | [10] -0.127

NDUFA7 (UniProt O95182)
inactive: [1] 0.017 | [2] 0.029 | [3] -0.02 | [4] 0.001 | [5] 0.002 | [6] -0.007 | [7] 0.019 | [8] -0.047 | [9] -0.085 | [10] 0.002

NIPA2 (UniProt Q8N8Q9)
inactive: [1] 0.041 | [2] -0.029 | [3] -0.044 | [4] -0.162 | [5] -0.008 | [6] 0.157 | [7] -0.15 | [8] 0.035 | [9] 0.229 | [10] 0.072

NDUFAF7 (UniProt Q7L592)
inactive: [1] 0.035 | [2] -0.045 | [3] -0.047 | [4] 0.027 | [5] -0.07 | [6] -0.065 | [7] 0.074 | [8] 0.016 | [9] 0.006 | [10] -0.012

NFXL1 (UniProt Q6ZNB6)
inactive: [1] -0.011 | [2] -0.068 | [3] 0.042 | [4] -0.069 | [5] 0.048 | [6] -0.009 | [7] -0.011 | [8] 0.009 | [9] 0.127 | [10] 0.107

NEDD4 isoform 4 (UniProt P46934)
inactive: [1] 0.003 | [2] -0.037 | [3] -0.032 | [4] -0.031 | [5] -0.005 | [6] -0.057 | [7] 0.026 | [8] -0.037 | [9] -0.033 | [10] 0.009

NDUFB9 (UniProt Q9Y6M9)
inactive: [1] -0.013 | [2] -0.057 | [3] 0.044 | [4] 0.04 | [5] 0.007 | [6] -0.082 | [7] -0.018 | [8] -0.034 | [9] 0.075 | [10] -0.07

NLN (UniProt Q9BYT8)
inactive: [1] -0.002 | [2] -0.021 | [3] 0.002 | [4] 0.078 | [5] 0.016 | [6] -0.06 | [7] 0.007 | [8] 0.021 | [9] -0.032 | [10] -0.069

NIF3L1 (UniProt Q9GZT8)
inactive: [1] -0.011 | [2] -0.051 | [3] 0.012 | [4] 0.011 | [5] 0.013 | [6] 0.036 | [7] -0.025 | [8] 0.015 | [9] 0.013 | [10] 0.005

NFATC3 (UniProt Q12968)
inactive: [1] 0.049 | [2] 0.014 | [3] -0.011 | [4] -0.01 | [5] -0.004 | [6] 0.014 | [7] -0.034 | [8] -0.041 | [9] -0.012 | [10] 0.003

NDUFS5 (UniProt O43920)
inactive: [1] -0.011 | [2] -0.048 | [3] 0.003 | [4] 0.021 | [5] -0.037 | [6] -0.02 | [7] 0.046 | [8] 0.004 | [9] 0.013 | [10] -0.001

NISCH (UniProt Q9Y2I1)
inactive: [1] 0.026 | [2] -0.06 | [3] -0.036 | [4] 0.024 | [5] -0.03 | [6] -0.065 | [7] -0.001 | [8] 0.002 | [9] 0.008 | [10] -0.037

NIFK (UniProt Q9BYG3)
inactive: [1] -0.004 | [2] -0.019 | [3] -0.033 | [4] -0.027 | [5] 0.009 | [6] 0 | [7] 0.036 | [8] -0.009 | [9] -0.026 | [10] 0.064

NDEL1 isoform 2 (UniProt Q9GZM8)
inactive: [1] 0.007 | [2] 0.012 | [3] 0.051 | [4] 0.14 | [5] -0.023 | [6] 0.039 | [7] -0.024 | [8] 0.034 | [9] -0.041 | [10] -0.041

NFYC (UniProt Q13952)
inactive: [1] 0.019 | [2] 0.046 | [3] 0.017 | [4] -0.016 | [5] 0.008 | [6] 0 | [7] 0.067 | [8] 0.037 | [9] 0.04 | [10] 0.064

NDUFB11 isoform 2 (UniProt Q9NX14)
inactive: [1] -0.006 | [2] -0.008 | [3] 0.028 | [4] 0.057 | [5] 0.017 | [6] -0.027 | [7] 0.025 | [8] -0.032 | [9] -0.008 | [10] 0.002

NIN isoform 7 (UniProt Q8N4C6)
inactive: [1] 0.054 | [3] -0.042 | [4] 0.009 | [6] -0.136 | [8] -0.041 | [10] -0.052

NIPSNAP3B (UniProt Q9BS92)
inactive: [1] -0.087 | [2] 0.116 | [3] -0.108 | [4] -0.045 | [6] 0.104 | [7] 0.214 | [8] 0.134 | [9] -0.132 | [10] 0.07
